Values of other authors, collected in patent US8772287B2, “Pyrimidinyl and 1,3,5-triazinyl benzimidazole sulfonamides and their use in cancer therapy” (VetDC, Inc., priority 2009, dated 2014).
For at least one compound, name, drawing or mass did not settle the structure.

Assays:
[1] = system: human tumor xenografts; details: mice with human tumor xenografts; cited from earlier work
[2] = system: cell lines over-expressing mutant forms of p110α; details: cited from earlier work

O=c1cc(N2CCOCC2)oc2c(-c3ccccc3)cccc12 [LY294002]
signaling through the PI3K pathway [1]: reduces signaling through the PI3K pathway
tumor volume [1]: causes reduction of tumor volume
activity in mutant p110α over-expressing cell lines versus parental control cells [2]: more active in cell lines over-expressing mutant forms of p110α than parental control cells
